# Test results published in PubChem BioAssay AID2685 (National Center for Advancing Translational Sciences (NCATS), 2010).
# This is one part of the list. Shown are side measurements of this screen, not its main read-out; they come without a call. Compounds called inactive in the main read-out are mostly missing here. The note in brackets gives the kind of curve behind each potency; many fits are weak.
# Assay: qHTS Assay for Lipid Storage Modulators in Drosophila S3 Cells;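 for cell number change: cells counted by Cell Tracker Red CMTPX staining in the red channel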
# Details: BODIPY lipid droplet fluorescence, 18-24 h; for cell number change: measured here: cell count max response, cells fed with added oleic acid
# In short: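 Laser-scanning cytometry quantifies lipid droplet accumulation (500–530 nm total intensity; droplet/cell object ratio) in oleic acid-fed (400 uM added) Drosophila S3 cells treated with a concentration series. 20 uM Triacsin C defined 100% inhibition.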
# [1] = measured here: cell number channel AC50, cells fed with added oleic acid
# [2] = measured here: lipid fluorescence (Fed channel) AC50, cells fed with added oleic acid
SMILES,cell number change,AC50 [1],AC50 [2]
CCOc1ccccc1N(C)S(=O)(=O)c1ccc2c(c1)CC(C)N2C(=O)C1CC1 (stereo unspecified),-33.4%,"7.31 µM [falling, partial curve]","6.51 µM [falling, single point]"
COc1ccc(C(=O)CSc2nnc(-c3ccccc3)o2)cc1,-0.68%,,
C/C(=C\C(=O)c1sccc1Cl)N(C)C,-13.5%,,
CN(C(=O)c1cccc(C(F)(F)F)c1)C1CCCc2ccccc21 (stereo unspecified),13.5%,,"6.51 µM [rising, single point]"
Cc1ccc(Cl)cc1N1CCN(Cc2nnnn2Cc2ccco2)CC1,5.28%,,"0.116 µM [falling, full curve, poor fit]"
CS(=O)(=O)Nc1cccc(-c2cn3ccccc3n2)c1,29.1%,"0.291 µM [rising, full curve, poor fit]","25.9 µM [rising, partial curve, poor fit]"
O=[N+]([O-])c1ccc(CCNc2cccc3ccccc23)c([N+](=O)[O-])c1,-32%,"9.2 µM [falling, single point]",
Cc1ccc(NC(=O)CSc2nc3ncc(Cl)cc3[nH]2)c(C)c1,20.8%,,
CC(=O)c1cccc(NC(=O)C2CC(=O)N(c3ccc4c(c3)OCCO4)C2)c1 (stereo unspecified),,,"0.206 µM [falling, full curve]"
CCc1cccc(CC)c1NC(=O)C[n+]1cccc(C(N)=O)c1,-4.87%,"0.0103 µM [falling, full curve, poor fit]","0.00461 µM [falling, full curve, poor fit]"
CCOC(=O)CSc1nnnn1-c1cc(OC)ccc1OC,-0.0844%,,
CCOc1ccc(-n2c(O)c(/C=N/c3ccnn3Cc3ccncc3)c3ccccc3c2=O)cc1,2.54%,"0.58 µM [falling, full curve]","0.731 µM [falling, full curve]"
CC(=O)c1ccc(NC(=O)/C(=C\c2ccco2)NC(=O)c2ccco2)cc1,37.3%,"23.1 µM [rising, single point]",
Cc1cccc(/N=C/c2c(O)c3ccccc3oc2=O)n1,-19.4%,,"3.26 µM [falling, single point]"
CCc1sc(C(C2C(=O)CC(C)(C)CC2=O)C2C(=O)CC(C)(C)CC2=O)cc1[N+](=O)[O-],-42.9%,"25.9 µM [falling, single point]","25.9 µM [falling, single point]"
NNc1nc(-c2ccccc2)cs1,,"0.103 µM [rising, single point]",
Cc1onc(-c2ccccc2)c1C(=O)Nc1ccon1,4.42%,"0.731 µM [falling, full curve, poor fit]","16.4 µM [falling, partial curve]"
CN(CCNC(=O)c1cccc(N2CCCC2=O)c1)Cc1ccccc1,8.5%,,"6.51 µM [falling, partial curve, poor fit]"
CCOCCCN(C)C1CCN(C(=O)c2oc3ccccc3c2NC(=O)c2cccc([N+](=O)[O-])c2)CC1,31.6%,"1.64 µM [rising, full curve]",
CC(C)C(=O)Nc1nnc(CCN2CCOCC2)s1,-12.3%,,"0.231 µM [rising, full curve, poor fit]"
O=C(CNC(=O)c1ccccc1)OCCOc1cccc(Cl)c1,-75%,"29.1 µM [falling, single point]",

SMILES,cell number change,AC50 [1],AC50 [2]
CCOc1c(Br)cc(/C=C(\C#N)C(=O)NC2CC2)cc1OC,2.7%,,"6.51 µM [falling, single point]"
O=C(CCN1C(=O)c2ccccc2S1(=O)=O)NCc1ccc(F)cc1,22.5%,"3.66 µM [rising, full curve, poor fit]","6.51 µM [rising, single point]"
COc1cccc(NC(=O)C(C)OC(=O)c2n[nH]c3ccccc23)c1 (stereo unspecified),-13%,,
Cc1ccc2[nH]c3c(=O)n(CCCN4CCOCC4)cnc3c2c1,-1.57%,,"6.51 µM [falling, single point]"
O=C(O)CC1(CC(=O)N2CCN(CCO)CC2)CCCC1,-32.2%,,
Cc1nn(-c2ccccc2)c(C)c1NC(=O)COC(=O)CC(C)c1ccccc1 (stereo unspecified),33.5%,"2.59 µM [rising, full curve]",
O=S(=O)(Nc1ccc(Br)cc1)c1cccc2cccnc12,7.91%,,"0.651 µM [falling, partial curve, poor fit]"
CCOC(=O)c1[nH]c(C)c(/C(O)=C2\C(=O)C(=O)N(CCN(C)C)C2c2ccc(C)o2)c1C (stereo unspecified),94.5%,"25.9 µM [rising, single point]",
Cc1ccc(CNC(=O)CCS(=O)(=O)c2cc3c(cc2Cl)NC(=O)CO3)cc1,-9.72%,,"20.6 µM [falling, partial curve]"
O=C1CN(S(=O)(=O)c2cc(C(F)(F)F)ccc2Cl)CCN1,-0.0705%,,"3.66 µM [rising, single point]"
O=C(OCC(=O)c1ccccc1Br)c1ccncc1,-30.7%,"0.0058 µM [falling, full curve, poor fit]",
CC(=O)N1C(=O)C2(C(C#N)=C(N)Oc3c2c(C)nn3-c2ccccc2)c2ccccc21 (stereo unspecified),,,"6.51 µM [falling, single point]"
COC(=O)N/N=C/c1cc(C)n(-c2cccc3ccccc23)c1C,5.21%,,
CCCCCn1c2nc3ccccc3nc2c2c(=O)n(CC(C)C)cnc21,40.3%,"0.517 µM [rising, full curve, poor fit]","1.84 µM [rising, partial curve]"
OCCOc1ccc(CN2CCN(CCCc3ccccc3)C(CCO)C2)cc1 (stereo unspecified),7.42%,,"29.1 µM [falling, single point]"
CC(C)(C)C(=O)NC1(C(F)(F)F)NC(=O)N(c2ccc(F)cc2)C1=O (stereo unspecified),148%,,
COc1ccc(CCNC(=O)/C=C/C(=O)O)cc1OC,-40.3%,"23.1 µM [falling, single point]",
Cc1ccc(NC(=O)CSc2nnc(C)c(=O)n2N)cc1Cl,-6.45%,,"13 µM [falling, partial curve]"
C/C(CC(=O)Nc1ccc2c(c1)OCCO2)=N\NC(=O)COc1ccc(C)cc1Br,-6.67%,,"4.11 µM [rising, single point]"
COC(=O)C1=C(N)OC2=C(C(=O)CCC2)C1c1cccs1 (stereo unspecified),,"2.31 µM [falling, partial curve, poor fit]","2.06 µM [falling, partial curve]"
Cc1cc(=O)cc(C)n1-c1ccccc1N1CCOCC1,-42.5%,"1.3 µM [falling, full curve]","0.231 µM [falling, full curve]"

SMILES,cell number change,AC50 [1],AC50 [2]
Cc1cccc(NC(=O)c2cnn(C)c2)c1C,-21.5%,,"6.51 µM [rising, single point]"
O=c1[nH]nc(SCc2nnc(-c3ccc([N+](=O)[O-])cc3)o2)n1C1CCCCC1,-16%,,"29.1 µM [falling, single point]"
CCCCNC(=O)CC(C(=O)N1CCc2ccccc21)n1ccnc1 (stereo unspecified),,"0.082 µM [rising, full curve, poor fit]","0.103 µM [rising, full curve, poor fit]"
CCOC(=O)N1CCC(NC(=O)c2cc(S(=O)(=O)N(CC)CC)ccc2F)CC1,-45%,"5.8 µM [falling, full curve, poor fit]","7.31 µM [falling, partial curve]"
COc1cc2c(cc1OC)C1=C(C#N)CN(CC(=O)O)CN1CC2,7.13%,,"7.31 µM [falling, partial curve, poor fit]"
Cc1c(Cl)cccc1NC(=S)Nn1cnnc1,-13.3%,,
Cn1c(N)c(C(=O)c2ccc(Oc3ccccc3)cc2)c(=O)n(C)c1=O,21%,,"2.59 µM [rising, partial curve]"
CCOC(=O)C1CCN(c2ncnc3c(C)csc23)CC1,-5.84%,,"0.651 µM [falling, single point]"
S=c1[nH]nc(-c2cccc(Cl)c2)n1Cc1ccccc1,,"6.51 µM [rising, single point]","0.206 µM [rising, full curve, poor fit]"
O=C(CCc1nnc(-c2ccc3c(c2)OCO3)o1)N1CCC(c2ccc(F)cc2)C1 (stereo unspecified),5.73%,,"6.51 µM [falling, single point]"
CCc1ccc(C(=O)N2CCN(c3ccc(NC(=O)c4ccco4)cc3)CC2)cc1,-2.21%,,"29.1 µM [falling, single point]"
O=C(c1cc(COc2ccc(F)cc2Cl)on1)N1CCCCCC1,,,"0.058 µM [rising, full curve, poor fit]"
Nn1c(SCc2cccc3ccccc23)nnc1-c1ccco1,32.2%,"0.82 µM [rising, full curve, poor fit]",
Cc1n[nH]c(=S)n1/N=C/c1ccc(Br)o1,,,"6.51 µM [falling, single point]"
COC(=O)C1Sc2[nH]c(=O)sc2C(c2ccc(Cl)cc2)C1C(=O)OC (stereo unspecified),2.3%,,
Cc1ccc(S(=O)(=O)N2CCCC(C(=O)NCC(C)C)C2)cc1 (stereo unspecified),-9.68%,,
COC(=O)c1cc(NC(=S)N2CCN(c3ccccn3)CC2)cc(C(=O)OC)c1,-6.15%,,"6.51 µM [falling, single point]"
CCC(C(=O)OCC(=O)Nc1ccc(F)cc1)c1ccccc1 (stereo unspecified),-18.7%,,"0.164 µM [falling, full curve, poor fit]"
CN(C)S(=O)(=O)c1ccc(NC(=O)c2cc(-c3cccs3)nc3ccccc23)cc1,17.9%,,"8.2 µM [rising, partial curve]"

# 5 entries picked at random from the list so far, as already listed:
SMILES,cell number change,AC50 [1],AC50 [2]
Cc1ccc(S(=O)(=O)N2CCCC(C(=O)NCC(C)C)C2)cc1 (stereo unspecified),-9.68%,,
COc1cc2c(cc1OC)C1=C(C#N)CN(CC(=O)O)CN1CC2,7.13%,,"7.31 µM [falling, partial curve, poor fit]"
COC(=O)c1cc(NC(=S)N2CCN(c3ccccn3)CC2)cc(C(=O)OC)c1,-6.15%,,"6.51 µM [falling, single point]"
Cc1c(Cl)cccc1NC(=S)Nn1cnnc1,-13.3%,,
CCc1ccc(C(=O)N2CCN(c3ccc(NC(=O)c4ccco4)cc3)CC2)cc1,-2.21%,,"29.1 µM [falling, single point]"
